Results are given in words; binding and its absence hold for the method and conditions named. Some entries that bind do so weakly or less than the wild type.
Key:
[1] = target: T1, FV-810^R1545Q pretreated with thrombin (human, UniProt P12259 29-737; P12259 738-838; P12259 1520-2224); assay: fluorescence anisotropy; thrombin-cleaved FV-810 variants
T1 construct: Cleaved only at Arg709: B-domain remnant stays tethered to the light chain; also called thrombin-cleaved FV-810^R1545Q

[2] = target: T2, FV-810^QQ (human, UniProt P12259 29-838; P12259 1520-2224); assay: fluorescence anisotropy; thrombin-pretreated FV-810 variants
T2 construct: range 1-810;range 1492-2196; Both thrombin sites (Arg709 and Arg1545) changed to Gln; the assay field says where thrombin pretreatment was used

binding [1]: binds
binding [2]: binds
B1: Oregon Green 488 maleimide-modified BR (OG488-BR) (peptide)
peptide: CSRAWGESTPLANKPGKQSGHPKFPRVRHKSLQVRQDGGKSRLKKSQFLIKTRKKKKEK
modifications: Oregon Green 488 maleimide on the added N-terminal Cys

— patent US20160222085A1 (CHILDREN S HOSPITAL OF PHILADELPHIA, published 2016)
